The text below walks through data of patent US20120130060A1, “Modified antisense oligopeptides with anticancer properties and method of obtaining them” (priority 2010, published 2012).

Structures are written as SMILES.

A short description of this data set: ED50 and therapeutic index, comparative characteristics of Anticanum and Taxotere. The class given is in vivo.

In the case of `CC(=O)O[C@@]12CO[C@@H]1C[C@H](O)[C@@]1(C)C(=O)[C@H](O)C3=C(C)[C@@H](OC(=O)[C@H](O)[C@@H](NC(=O)OC(C)(C)C)c4ccccc4)C[C@@](O)([C@@H](OC(=O)c4ccccc4)[C@H]21)C3(C)C` [Taxotere], the “Therapeutic Index” value (LD50 rats i.v. / ED50) amounted to 3.42. The “Relative Therapeutic Index” value (relative to Taxotere) came out at 1.
